Results deposited as PubChem BioAssay AID652272 (Drosophila RNAi Screening Center, 2013)
The deposit covers about 21,000 reagents; shown is an unselected part of those with a known target gene and a result. In the full data, 503 (2.4%) were called active. 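Raw plate light values, not normalised; calls rest on replicate z-scores that were not deposited; hits include reporter decreases as well as increases.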 A number with no mark means an inactive call. No sequences are given here. The record does not give: the amount of reagent, the time to read-out.

Screen: 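Finding fly genes that regulate Hedgehog signal transduction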 (primary screen)
Cells: Drosophila clone 8 (Cl8) cells
Reagent: long dsRNA against Drosophila genes
Detection: 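Firefly light from a Hedgehog-responsive ptc promoter reporter and Renilla reference light, both read on a plate reader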
Reading the numbers: firefly Hh reporter signal: higher = more ptc reporter light; Renilla reference signal: higher = more Renilla control light
Active means: 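Hit when the z-score averaged over two replicates is under -2 or over +3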
Meaning of the calls: active = hit: reporter lowered or raised; inactive = not a hit

For CG13870 [DRSC06429], what was measured?
firefly Hh reporter signal, replicate 1: 85554; firefly Hh reporter signal, replicate 2: 39394; Renilla reference signal, replicate 1: 1961; Renilla reference signal, replicate 2: 235

With CG31174 [DRSC13518], what was measured?
firefly Hh reporter signal, replicate 1: 61555; firefly Hh reporter signal, replicate 2: 2.60e5; Renilla reference signal, replicate 1: 11840; Renilla reference signal, replicate 2: 6170

How did the screen score AANATL5 [DRSC05994]?
firefly Hh reporter signal, replicate 1: 99549; firefly Hh reporter signal, replicate 2: 88849; Renilla reference signal, replicate 1: 2665; Renilla reference signal, replicate 2: 6728

With Vmat [DRSC06961], what was measured?
firefly Hh reporter signal, replicate 1: 98259; firefly Hh reporter signal, replicate 2: 59659; Renilla reference signal, replicate 1: 4328; Renilla reference signal, replicate 2: 2536

For Vmat [DRSC06962], what does the deposit list?
firefly Hh reporter signal, replicate 1: 1.23e5; firefly Hh reporter signal, replicate 2: 62403; Renilla reference signal, replicate 1: 3148; Renilla reference signal, replicate 2: 5267

For wtrw [DRSC14241], what was measured?
firefly Hh reporter signal, replicate 1: 1.38e5; firefly Hh reporter signal, replicate 2: 57708; Renilla reference signal, replicate 1: 5447; Renilla reference signal, replicate 2: 2944

With wtrw [DRSC15278], what does the deposit list?
firefly Hh reporter signal, replicate 1: 55959; firefly Hh reporter signal, replicate 2: 4.10e5; firefly Hh reporter signal, replicate 3: 83786; Renilla reference signal, replicate 1: 2384; Renilla reference signal, replicate 2: 3106

What is on record for Tep2 [DRSC02679]?
firefly Hh reporter signal, replicate 1: 98068; firefly Hh reporter signal, replicate 2: 49744; Renilla reference signal, replicate 1: 3043; Renilla reference signal, replicate 2: 3802

For Tep2 [DRSC03451], what was measured?
firefly Hh reporter signal, replicate 1: 1.57e5; firefly Hh reporter signal, replicate 2: 57001; Renilla reference signal, replicate 1: 3772; Renilla reference signal, replicate 2: 4883

With gce [DRSC19613], what does the deposit list?
firefly Hh reporter signal, replicate 1: 97003; firefly Hh reporter signal, replicate 2: 2.95e5; Renilla reference signal, replicate 1: 3532; Renilla reference signal, replicate 2: 12493

How did the screen score gce [DRSC19974]?
firefly Hh reporter signal, replicate 1: 71612; firefly Hh reporter signal, replicate 2: 1.71e5; Renilla reference signal, replicate 1: 2649; Renilla reference signal, replicate 2: 7346

For aly [DRSC08707], what does the deposit list?
firefly Hh reporter signal, replicate 1: 1.42e5; firefly Hh reporter signal, replicate 2: 79880; Renilla reference signal, replicate 1: 4460; Renilla reference signal, replicate 2: 5421

What is on record for spz [DRSC17065]?
firefly Hh reporter signal, replicate 1: 94920; firefly Hh reporter signal, replicate 2: 78979; Renilla reference signal, replicate 1: 2300; Renilla reference signal, replicate 2: 2513

What did the screen give for GstT1 [DRSC06243]?
firefly Hh reporter signal, replicate 1: 1.21e5; firefly Hh reporter signal, replicate 2: 63594; Renilla reference signal, replicate 1: 2979; Renilla reference signal, replicate 2: 4996

What is on record for CG11790 [DRSC14390]?
firefly Hh reporter signal, replicate 1: 95450; firefly Hh reporter signal, replicate 2: 1.00e5; Renilla reference signal, replicate 1: 3741; Renilla reference signal, replicate 2: 4400

What did the screen give for sll [DRSC16271]?
firefly Hh reporter signal, replicate 1: 1.13e5; firefly Hh reporter signal, replicate 2: 93085; Renilla reference signal, replicate 1: 4697; Renilla reference signal, replicate 2: 3446

Which result is listed for CG10029 [DRSC12498]?
firefly Hh reporter signal, replicate 1: 1.38e5; firefly Hh reporter signal, replicate 2: 1.63e5; Renilla reference signal, replicate 1: 5192; Renilla reference signal, replicate 2: 4967

With CG13920 [DRSC08389], how do the results read?
firefly Hh reporter signal, replicate 1: 1.40e5; firefly Hh reporter signal, replicate 2: 1.07e5; Renilla reference signal, replicate 1: 5719; Renilla reference signal, replicate 2: 4512

For Grasp65 [DRSC10917], what does the deposit list?
firefly Hh reporter signal, replicate 1: 68112; firefly Hh reporter signal, replicate 2: 60088; Renilla reference signal, replicate 1: 2812; Renilla reference signal, replicate 2: 2184

With CG9737 [DRSC16550], what does the deposit list?
firefly Hh reporter signal, replicate 1: 94022; firefly Hh reporter signal, replicate 2: 1.24e5; Renilla reference signal, replicate 1: 2850; Renilla reference signal, replicate 2: 3489

With CG7544 [DRSC07023], what does the deposit list?
firefly Hh reporter signal, replicate 1: 7.46e5; firefly Hh reporter signal, replicate 2: 1.14e5; Renilla reference signal, replicate 1: 4893; Renilla reference signal, replicate 2: 4893

An excerpt from above, showing only “Renilla reference signal, replicate 1”.
Tep2 [DRSC02679] = 3043
Tep2 [DRSC03451] = 3772
